According to the supplement of paper PMC12823440, “Inhibitors supercharge kinase turnover through native proteolytic circuits” (Nature, 2025):
Structures can show the parent of a compound that is named as a salt. The list shows a part of the results. The calls rarely recur for the same compound in another form.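 Kinases were expressed as nanoluciferase fusions in K562 cells and luminescence was read every 4 h between 2 and 18 h as percent of control, DMSO set to 100% and a positive control to 0%. A time point counts as decreased when the signal drops significantly (2 sigma). The hit call is the authors' own, does not follow from the count of time points alone, and its rule is not shown.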

Sequences of proteins named here, by UniProt entry; tags and fusion partners are left off. A change or cut given only in a name is not applied to a line headed by its entry.
UniProt P07947, whole entry, looked up: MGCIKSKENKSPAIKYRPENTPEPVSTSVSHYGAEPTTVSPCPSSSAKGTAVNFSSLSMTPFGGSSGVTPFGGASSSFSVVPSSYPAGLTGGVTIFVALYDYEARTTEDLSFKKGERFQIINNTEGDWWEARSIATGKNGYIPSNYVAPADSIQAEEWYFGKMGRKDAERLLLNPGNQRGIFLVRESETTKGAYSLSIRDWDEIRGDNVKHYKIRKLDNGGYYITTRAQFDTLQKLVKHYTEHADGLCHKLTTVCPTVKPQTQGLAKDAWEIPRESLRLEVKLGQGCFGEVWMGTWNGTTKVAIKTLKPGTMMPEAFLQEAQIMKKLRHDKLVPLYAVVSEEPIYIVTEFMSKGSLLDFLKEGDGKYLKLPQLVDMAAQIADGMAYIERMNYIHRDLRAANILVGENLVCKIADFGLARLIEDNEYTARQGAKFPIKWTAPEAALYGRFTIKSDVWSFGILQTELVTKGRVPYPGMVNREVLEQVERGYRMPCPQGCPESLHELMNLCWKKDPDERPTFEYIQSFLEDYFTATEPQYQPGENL
UniProt P43403: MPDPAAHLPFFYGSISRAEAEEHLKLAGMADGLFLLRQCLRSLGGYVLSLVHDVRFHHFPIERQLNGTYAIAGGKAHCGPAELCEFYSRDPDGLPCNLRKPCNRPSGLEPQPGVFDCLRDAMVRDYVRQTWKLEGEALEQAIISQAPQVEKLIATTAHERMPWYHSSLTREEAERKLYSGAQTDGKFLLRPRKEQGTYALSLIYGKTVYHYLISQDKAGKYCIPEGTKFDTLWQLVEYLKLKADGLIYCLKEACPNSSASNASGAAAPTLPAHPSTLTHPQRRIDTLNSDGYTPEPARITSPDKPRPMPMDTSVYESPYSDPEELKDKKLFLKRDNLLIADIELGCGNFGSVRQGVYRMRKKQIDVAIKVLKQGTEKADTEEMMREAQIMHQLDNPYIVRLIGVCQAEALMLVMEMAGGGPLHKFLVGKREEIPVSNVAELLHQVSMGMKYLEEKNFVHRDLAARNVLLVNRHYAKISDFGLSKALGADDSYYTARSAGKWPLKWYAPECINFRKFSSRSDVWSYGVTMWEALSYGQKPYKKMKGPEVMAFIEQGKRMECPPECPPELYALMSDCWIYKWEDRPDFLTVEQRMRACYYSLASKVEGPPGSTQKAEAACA
UniProt P11802: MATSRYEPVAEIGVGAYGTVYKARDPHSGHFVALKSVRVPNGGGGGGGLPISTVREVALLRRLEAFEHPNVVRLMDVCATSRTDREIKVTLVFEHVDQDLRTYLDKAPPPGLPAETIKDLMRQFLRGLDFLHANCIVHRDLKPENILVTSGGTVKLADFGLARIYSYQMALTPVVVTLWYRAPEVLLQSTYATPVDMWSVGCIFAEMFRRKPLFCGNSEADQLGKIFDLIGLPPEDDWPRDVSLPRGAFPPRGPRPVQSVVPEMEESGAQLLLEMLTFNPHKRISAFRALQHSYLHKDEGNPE
UniProt P50613: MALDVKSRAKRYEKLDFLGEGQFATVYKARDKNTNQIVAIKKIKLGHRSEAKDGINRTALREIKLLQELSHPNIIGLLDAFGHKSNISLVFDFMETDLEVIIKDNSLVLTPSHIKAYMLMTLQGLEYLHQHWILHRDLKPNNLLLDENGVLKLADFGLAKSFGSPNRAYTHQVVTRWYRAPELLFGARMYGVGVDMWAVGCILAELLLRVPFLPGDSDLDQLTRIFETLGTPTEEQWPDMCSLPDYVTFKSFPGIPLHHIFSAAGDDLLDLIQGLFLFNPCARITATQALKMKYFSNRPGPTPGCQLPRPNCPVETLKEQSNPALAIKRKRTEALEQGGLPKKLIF
UniProt P50750, whole entry: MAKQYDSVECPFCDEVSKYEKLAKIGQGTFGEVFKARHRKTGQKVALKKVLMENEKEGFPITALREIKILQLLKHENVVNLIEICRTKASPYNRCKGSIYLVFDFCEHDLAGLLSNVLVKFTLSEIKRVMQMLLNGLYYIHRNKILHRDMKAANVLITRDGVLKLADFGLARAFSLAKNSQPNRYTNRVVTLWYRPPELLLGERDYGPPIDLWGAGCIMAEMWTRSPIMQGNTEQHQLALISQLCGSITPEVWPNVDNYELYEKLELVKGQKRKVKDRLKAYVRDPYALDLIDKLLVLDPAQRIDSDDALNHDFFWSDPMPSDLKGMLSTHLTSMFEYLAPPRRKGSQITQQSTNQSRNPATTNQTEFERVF

Key:
Settings in all cases: K562; 2-18 h
YES1 = YES1 (UniProt P07947); test: number of time points (of 5) at which kinase-Nluc abundance scored as decreased, DMSO-normalised (count); higher = more persistent destabilization
ZAK = ZAK (UniProt Q9NYL2); test: as above
ZAP70 = ZAP70 (UniProt P43403); test: as above
CDK4 = CDK4 (UniProt P11802); test: number of time points (of 4; 2 h point missing) at which kinase-Nluc abundance scored as decreased, DMSO-normalised (count); higher = more persistent destabilization
CDK7 = CDK7 (UniProt P50613); test: as above
CDK9 = CDK9 (UniProt P50750); test: as above

Structure (SMILES) | number of time points (YES1) | number of time points (ZAK) | number of time points (ZAP70) | number of time points (CDK4) | number of time points (CDK7) | number of time points (CDK9)
O=C(CNC(=O)c1ccc(-c2ccccc2)cc1)NC1CCCc2ccccc21 (stereo not drawn) [TAO Kinase inhibitor 1] (10 µM) | 0 | 0 | 0 | 0 | 0 | 0
COc1cc(F)c(F)c(Nc2ccc(I)cc2F)c1NS(=O)(=O)C1(C[C@H](O)CO)CC1 [Refametinib] (10 µM) | 0 | 0 | 0 | 0 | 1 | 0
C[C@@]1(O)CCC[C@H]1n1c(=O)c(C(F)F)cc2cnc(NC3CCN(S(C)(=O)=O)CC3)nc21 (2.5 µM) | 0 | 0 | 0 | 0 | 1 | 0
COc1cccc(-n2c(=O)[nH]c3cc(Cl)n(-c4ccc(-c5cccc(OC)c5O)cc4)c3c2=O)c1 (2.5 µM) | 0 | 0 | 0 | 0 | 0 | 0
COc1ccc(Cn2cc(C(=O)N=Nc3c(O)[nH]c4c(C)cccc34)nn2)cc1 [MARK4 inhibitor 1] (10 µM) | 0 | 0 | 0 | 0 | 0 | 0
CCn1c(=O)c(-c2ccc(-c3cncc(C)n3)cc2Cl)cc2cnc(NCCC3CCN(C)CC3)nc21 (10 µM) | 0 | 0 | 0 | 0 | 0 | 0
O=c1oc2cc(O)ccc2c2ccccc12 [Urolithin B] (10 µM) | 0 | 0 | 0 | 0 | 0 | 0
CC(C)c1cnc(-c2cc(Cl)ccc2F)cc1Nc1ccncc1C(=O)NC(CO)CO (2.5 µM) | 0 | 0 | 0 | 0 | 0 | 0
CC1CN(C(=O)Nc2ccc(Cl)c(Cl)c2)C(=Nc2ccc(F)cc2)S1 (stereo not drawn) (10 µM) | 0 | 0 | 0 | 0 | 0 | 0
CS(=O)(=O)c1ccc(-c2noc(C(F)(F)F)c2-c2ccccc2)cc1 (10 µM) | 0 | 0 | 0 | 0 | 0 | 0
O=C(NCCCNc1nc(Nc2cccc(NC(=O)N3CCCC3)c2)ncc1I)c1cccs1 (2.5 µM) | 0 | 0 | 0 | 0 | 0 | 0
CN1C(=O)C(Cc2c[nH]c3ccccc23)NC1=S (stereo not drawn) [Necrostatin-1] (10 µM) | 0 | 0 | 0 | 0 | 0 | 0
Cc1c(CN2CCN(S(C)(=O)=O)CC2)sc2c(N3CCOCC3)nc(-c3cnc(N)nc3)nc12 (2.5 µM) | 0 | 0 | 0 | 0 | 0 | 0
Cc1cc(O)c(C(C)C)cc1N=O [Poloxime] (10 µM) | 0 | 0 | 0 | 0 | 0 | 2
CC(C)(C)NC(=O)c1cncn1C1CCN(c2ccc(-c3nnc(C(F)(F)F)o3)cn2)CC1 (10 µM) | 0 | 0 | 0 | 0 | 0 | 0
Cn1cc(Nc2nccc(N3C[C@H]4CC[C@@H](C3)N4C(=O)[C@@H]3CC3(F)F)n2)cn1 (10 µM) | 0 | 0 | 0 | 0 | 0 | 0
CCn1c(C(=O)N(C2CC2)C2CC2)cc2c3c(ncn3C)c(Nc3cc(C)n(C)n3)nc21 (10 µM) | 0 | 0 | 0 | 0 | 0 | 0

Exported with each value named: entries from further up.
COc1ccc(Cn2cc(C(=O)N=Nc3c(O)[nH]c4c(C)cccc34)nn2)cc1 [MARK4 inhibitor 1] (10 µM)
  number of time points (YES1): 0
  number of time points (ZAK): 0
  number of time points (ZAP70): 0
  number of time points (CDK4): 0
  number of time points (CDK7): 0
  number of time points (CDK9): 0
Cn1cc(Nc2nccc(N3C[C@H]4CC[C@@H](C3)N4C(=O)[C@@H]3CC3(F)F)n2)cn1 (10 µM)
  number of time points (YES1): 0
  number of time points (ZAK): 0
  number of time points (ZAP70): 0
  number of time points (CDK4): 0
  number of time points (CDK7): 0
  number of time points (CDK9): 0

Next compounds

Structure (SMILES) | number of time points (YES1) | number of time points (ZAK) | number of time points (ZAP70) | number of time points (CDK4) | number of time points (CDK7) | number of time points (CDK9)
O=C(NC(NC(=S)Nc1ccc(F)c([N+](=O)[O-])c1)C(Cl)(Cl)Cl)C(c1ccccc1)c1ccccc1 (stereo not drawn) (10 µM) | 0 | 0 | 0 | 0 | 0 | 0
OC[C@H]1O[C@@H](Oc2cc3c(O)cc(O)cc3[o+]c2-c2cc(O)c(O)c(O)c2)[C@H](O)[C@@H](O)[C@@H]1O [Delphinidin 3-glucoside (chloride)] (10 µM) | 0 | 0 | 0 | 0 | 0 | 0
COc1ccc(CC(=O)Nc2nc3c(s2)CCc2ccccc2-3)cc1OC (10 µM) | 0 | 0 | 0 | 0 | 0 | 0
COc1cc(N2CCN(C)CC2)ccc1Nc1ncc2c(n1)N(C1CCC1)C(=O)N(c1c(C)cccc1C)C2 (2.5 µM) | 0 | 0 | 0 | 0 | 0 | 0
Cn1nccc1Nc1nccc(-c2cc3c(s2)C(C)(C)N(CCN2CCOCC2)C3=O)n1 (10 µM) | 0 | 0 | 0 | 0 | 0 | 0
O=[N+]([O-])c1cc(C(F)(F)F)cc([N+](=O)[O-])c1NNC(=S)Nc1ccc(F)cc1 (10 µM) | 0 | 0 | 0 | 0 | 0 | 0
COc1cc(S(C)(=O)=O)ccc1Nc1nc2ccc(-c3ccc(NC(=O)[C@H](C)c4ccc(F)cc4)cc3)cn2n1 [Empesertib] (10 µM) | 0 | 0 | 0 | 0 | 0 | 0
O=C(/C=C/c1ccc(O[C@@H]2O[C@H](CO)[C@@H](O)[C@H](O)[C@H]2O[C@@H]2OC[C@](O)(CO)[C@H]2O)cc1)c1ccc(O)cc1O [Isoliquiritin apioside] (10 µM) | 0 | 0 | 0 | 0 | 0 | 0
Cc1cc(Nc2nc(N[C@@H](C)c3ccc(F)cc3)c(C#N)cc2F)n[nH]1 (10 µM) | 0 | 0 | 0 | 0 | 0 | 0
OCCNC1CCCc2c1[nH]c1ccc(-c3ccccc3)cc21 (stereo not drawn) (2.5 µM) | 0 | 0 | 0 | 0 | 2 | 0
O=C(NCCCNC(=O)Nc1cccc(C2=NCCN2)c1)Nc1cccc(C2=NCCN2)c1 [p32 Inhibitor M36] (10 µM) | 0 | 0 | 0 | 0 | 0 | 0
O=C1Nc2nc(-c3c(O)cccc3OCC3CC3)cc([C@@H]3CCCNC3)c2CO1 [Bay 65-1942 (hydrochloride)] (10 µM) | 0 | 0 | 0 | 0 | 0 | 0
Cc1cc2cc(Nc3ccnc(Nc4ccc5[nH]c(C)cc5c4)n3)ccc2[nH]1 (2.5 µM) | 0 | 0 | 0 | 0 | 0 | 0
Cn1cnc(-c2cc3nccc(Oc4ccc(NC(=S)NC(=O)Cc5ccccc5)cc4F)c3s2)c1 [MGCD-265 analog] (10 µM) | 2 | 0 | 0 | 0 | 1 | 0
COc1ccc([C@H]2c3[nH]c4ccc(Cl)cc4c3CCN2C(=O)Oc2ccc(Cl)cc2)cc1 (2.5 µM) | 0 | 0 | 0 | 0 | 1 | 0
CO[C@H]1C[C@@H]2CC[C@@H](C)[C@@](O)(O2)C(=O)C(=O)N2CCCC[C@H]2C(=O)O[C@H]([C@H](C)C[C@@H]2CC[C@@H](O)[C@H](OC)C2)CC(=O)[C@H](C)/C=C(\C)[C@@H](O)[C@@H](OC)C(=O)[C@H](C)C[C@H](C)/C=C/C=C/C=C/1C [Rapamycin] (10 µM) | 0 | 0 | 0 | 0 | 0 | 0
